For 10 targets, log2 fold change results are on record in the supplement of paper PMC10849652.

Protein sequences, listed by entry. Tags and fused reporters are not part of them. Lines headed by an entry give the natural chain unless they say otherwise; changes in a name come on top.
UniProt O43390: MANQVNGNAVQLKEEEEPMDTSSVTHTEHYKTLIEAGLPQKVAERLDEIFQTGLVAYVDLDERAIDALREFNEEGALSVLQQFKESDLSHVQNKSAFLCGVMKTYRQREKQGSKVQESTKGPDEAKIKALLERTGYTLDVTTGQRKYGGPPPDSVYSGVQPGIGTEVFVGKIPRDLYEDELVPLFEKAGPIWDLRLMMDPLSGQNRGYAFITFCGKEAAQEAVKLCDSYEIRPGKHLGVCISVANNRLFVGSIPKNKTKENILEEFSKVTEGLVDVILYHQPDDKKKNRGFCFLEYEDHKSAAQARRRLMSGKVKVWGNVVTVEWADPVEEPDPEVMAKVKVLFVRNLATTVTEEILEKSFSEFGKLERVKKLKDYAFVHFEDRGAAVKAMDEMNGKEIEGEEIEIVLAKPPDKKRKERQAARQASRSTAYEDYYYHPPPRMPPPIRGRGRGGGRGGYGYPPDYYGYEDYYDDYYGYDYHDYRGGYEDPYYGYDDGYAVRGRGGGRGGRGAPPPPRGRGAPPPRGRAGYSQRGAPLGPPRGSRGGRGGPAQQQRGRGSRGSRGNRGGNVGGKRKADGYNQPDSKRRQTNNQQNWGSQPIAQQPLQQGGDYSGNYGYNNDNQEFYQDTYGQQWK
UniProt P41134: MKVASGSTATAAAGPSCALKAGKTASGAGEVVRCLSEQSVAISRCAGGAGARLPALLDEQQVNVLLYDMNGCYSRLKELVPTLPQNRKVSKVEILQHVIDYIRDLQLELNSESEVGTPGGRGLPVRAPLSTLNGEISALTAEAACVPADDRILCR
UniProt Q9UGU5: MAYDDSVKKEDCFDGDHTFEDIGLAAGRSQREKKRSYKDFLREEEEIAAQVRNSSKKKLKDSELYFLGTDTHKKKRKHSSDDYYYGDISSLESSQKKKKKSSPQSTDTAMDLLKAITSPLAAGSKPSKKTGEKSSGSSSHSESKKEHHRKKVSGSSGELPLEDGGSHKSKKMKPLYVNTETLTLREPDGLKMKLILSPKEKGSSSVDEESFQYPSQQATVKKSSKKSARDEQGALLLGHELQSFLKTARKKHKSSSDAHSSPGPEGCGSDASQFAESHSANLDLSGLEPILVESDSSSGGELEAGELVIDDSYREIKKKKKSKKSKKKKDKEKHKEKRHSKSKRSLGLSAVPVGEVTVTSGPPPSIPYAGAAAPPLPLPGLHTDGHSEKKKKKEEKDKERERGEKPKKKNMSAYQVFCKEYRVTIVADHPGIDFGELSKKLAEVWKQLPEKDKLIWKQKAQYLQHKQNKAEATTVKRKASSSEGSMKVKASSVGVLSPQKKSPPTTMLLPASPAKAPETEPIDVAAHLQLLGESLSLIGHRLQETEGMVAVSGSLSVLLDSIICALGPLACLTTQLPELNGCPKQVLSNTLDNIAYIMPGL
UniProt Q05084: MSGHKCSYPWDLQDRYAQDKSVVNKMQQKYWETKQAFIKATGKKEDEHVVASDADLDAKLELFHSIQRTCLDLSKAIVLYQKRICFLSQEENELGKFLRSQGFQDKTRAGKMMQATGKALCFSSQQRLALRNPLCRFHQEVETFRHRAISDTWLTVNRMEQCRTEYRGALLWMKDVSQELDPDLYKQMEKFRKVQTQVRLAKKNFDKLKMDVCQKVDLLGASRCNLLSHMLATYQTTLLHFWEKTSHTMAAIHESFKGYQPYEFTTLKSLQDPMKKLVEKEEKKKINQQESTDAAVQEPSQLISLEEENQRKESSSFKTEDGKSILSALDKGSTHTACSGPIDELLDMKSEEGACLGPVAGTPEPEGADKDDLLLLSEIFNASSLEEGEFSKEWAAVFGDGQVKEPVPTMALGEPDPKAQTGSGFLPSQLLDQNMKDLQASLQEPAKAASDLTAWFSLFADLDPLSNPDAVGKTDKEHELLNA
UniProt Q7Z6Z7, whole entry, looked up: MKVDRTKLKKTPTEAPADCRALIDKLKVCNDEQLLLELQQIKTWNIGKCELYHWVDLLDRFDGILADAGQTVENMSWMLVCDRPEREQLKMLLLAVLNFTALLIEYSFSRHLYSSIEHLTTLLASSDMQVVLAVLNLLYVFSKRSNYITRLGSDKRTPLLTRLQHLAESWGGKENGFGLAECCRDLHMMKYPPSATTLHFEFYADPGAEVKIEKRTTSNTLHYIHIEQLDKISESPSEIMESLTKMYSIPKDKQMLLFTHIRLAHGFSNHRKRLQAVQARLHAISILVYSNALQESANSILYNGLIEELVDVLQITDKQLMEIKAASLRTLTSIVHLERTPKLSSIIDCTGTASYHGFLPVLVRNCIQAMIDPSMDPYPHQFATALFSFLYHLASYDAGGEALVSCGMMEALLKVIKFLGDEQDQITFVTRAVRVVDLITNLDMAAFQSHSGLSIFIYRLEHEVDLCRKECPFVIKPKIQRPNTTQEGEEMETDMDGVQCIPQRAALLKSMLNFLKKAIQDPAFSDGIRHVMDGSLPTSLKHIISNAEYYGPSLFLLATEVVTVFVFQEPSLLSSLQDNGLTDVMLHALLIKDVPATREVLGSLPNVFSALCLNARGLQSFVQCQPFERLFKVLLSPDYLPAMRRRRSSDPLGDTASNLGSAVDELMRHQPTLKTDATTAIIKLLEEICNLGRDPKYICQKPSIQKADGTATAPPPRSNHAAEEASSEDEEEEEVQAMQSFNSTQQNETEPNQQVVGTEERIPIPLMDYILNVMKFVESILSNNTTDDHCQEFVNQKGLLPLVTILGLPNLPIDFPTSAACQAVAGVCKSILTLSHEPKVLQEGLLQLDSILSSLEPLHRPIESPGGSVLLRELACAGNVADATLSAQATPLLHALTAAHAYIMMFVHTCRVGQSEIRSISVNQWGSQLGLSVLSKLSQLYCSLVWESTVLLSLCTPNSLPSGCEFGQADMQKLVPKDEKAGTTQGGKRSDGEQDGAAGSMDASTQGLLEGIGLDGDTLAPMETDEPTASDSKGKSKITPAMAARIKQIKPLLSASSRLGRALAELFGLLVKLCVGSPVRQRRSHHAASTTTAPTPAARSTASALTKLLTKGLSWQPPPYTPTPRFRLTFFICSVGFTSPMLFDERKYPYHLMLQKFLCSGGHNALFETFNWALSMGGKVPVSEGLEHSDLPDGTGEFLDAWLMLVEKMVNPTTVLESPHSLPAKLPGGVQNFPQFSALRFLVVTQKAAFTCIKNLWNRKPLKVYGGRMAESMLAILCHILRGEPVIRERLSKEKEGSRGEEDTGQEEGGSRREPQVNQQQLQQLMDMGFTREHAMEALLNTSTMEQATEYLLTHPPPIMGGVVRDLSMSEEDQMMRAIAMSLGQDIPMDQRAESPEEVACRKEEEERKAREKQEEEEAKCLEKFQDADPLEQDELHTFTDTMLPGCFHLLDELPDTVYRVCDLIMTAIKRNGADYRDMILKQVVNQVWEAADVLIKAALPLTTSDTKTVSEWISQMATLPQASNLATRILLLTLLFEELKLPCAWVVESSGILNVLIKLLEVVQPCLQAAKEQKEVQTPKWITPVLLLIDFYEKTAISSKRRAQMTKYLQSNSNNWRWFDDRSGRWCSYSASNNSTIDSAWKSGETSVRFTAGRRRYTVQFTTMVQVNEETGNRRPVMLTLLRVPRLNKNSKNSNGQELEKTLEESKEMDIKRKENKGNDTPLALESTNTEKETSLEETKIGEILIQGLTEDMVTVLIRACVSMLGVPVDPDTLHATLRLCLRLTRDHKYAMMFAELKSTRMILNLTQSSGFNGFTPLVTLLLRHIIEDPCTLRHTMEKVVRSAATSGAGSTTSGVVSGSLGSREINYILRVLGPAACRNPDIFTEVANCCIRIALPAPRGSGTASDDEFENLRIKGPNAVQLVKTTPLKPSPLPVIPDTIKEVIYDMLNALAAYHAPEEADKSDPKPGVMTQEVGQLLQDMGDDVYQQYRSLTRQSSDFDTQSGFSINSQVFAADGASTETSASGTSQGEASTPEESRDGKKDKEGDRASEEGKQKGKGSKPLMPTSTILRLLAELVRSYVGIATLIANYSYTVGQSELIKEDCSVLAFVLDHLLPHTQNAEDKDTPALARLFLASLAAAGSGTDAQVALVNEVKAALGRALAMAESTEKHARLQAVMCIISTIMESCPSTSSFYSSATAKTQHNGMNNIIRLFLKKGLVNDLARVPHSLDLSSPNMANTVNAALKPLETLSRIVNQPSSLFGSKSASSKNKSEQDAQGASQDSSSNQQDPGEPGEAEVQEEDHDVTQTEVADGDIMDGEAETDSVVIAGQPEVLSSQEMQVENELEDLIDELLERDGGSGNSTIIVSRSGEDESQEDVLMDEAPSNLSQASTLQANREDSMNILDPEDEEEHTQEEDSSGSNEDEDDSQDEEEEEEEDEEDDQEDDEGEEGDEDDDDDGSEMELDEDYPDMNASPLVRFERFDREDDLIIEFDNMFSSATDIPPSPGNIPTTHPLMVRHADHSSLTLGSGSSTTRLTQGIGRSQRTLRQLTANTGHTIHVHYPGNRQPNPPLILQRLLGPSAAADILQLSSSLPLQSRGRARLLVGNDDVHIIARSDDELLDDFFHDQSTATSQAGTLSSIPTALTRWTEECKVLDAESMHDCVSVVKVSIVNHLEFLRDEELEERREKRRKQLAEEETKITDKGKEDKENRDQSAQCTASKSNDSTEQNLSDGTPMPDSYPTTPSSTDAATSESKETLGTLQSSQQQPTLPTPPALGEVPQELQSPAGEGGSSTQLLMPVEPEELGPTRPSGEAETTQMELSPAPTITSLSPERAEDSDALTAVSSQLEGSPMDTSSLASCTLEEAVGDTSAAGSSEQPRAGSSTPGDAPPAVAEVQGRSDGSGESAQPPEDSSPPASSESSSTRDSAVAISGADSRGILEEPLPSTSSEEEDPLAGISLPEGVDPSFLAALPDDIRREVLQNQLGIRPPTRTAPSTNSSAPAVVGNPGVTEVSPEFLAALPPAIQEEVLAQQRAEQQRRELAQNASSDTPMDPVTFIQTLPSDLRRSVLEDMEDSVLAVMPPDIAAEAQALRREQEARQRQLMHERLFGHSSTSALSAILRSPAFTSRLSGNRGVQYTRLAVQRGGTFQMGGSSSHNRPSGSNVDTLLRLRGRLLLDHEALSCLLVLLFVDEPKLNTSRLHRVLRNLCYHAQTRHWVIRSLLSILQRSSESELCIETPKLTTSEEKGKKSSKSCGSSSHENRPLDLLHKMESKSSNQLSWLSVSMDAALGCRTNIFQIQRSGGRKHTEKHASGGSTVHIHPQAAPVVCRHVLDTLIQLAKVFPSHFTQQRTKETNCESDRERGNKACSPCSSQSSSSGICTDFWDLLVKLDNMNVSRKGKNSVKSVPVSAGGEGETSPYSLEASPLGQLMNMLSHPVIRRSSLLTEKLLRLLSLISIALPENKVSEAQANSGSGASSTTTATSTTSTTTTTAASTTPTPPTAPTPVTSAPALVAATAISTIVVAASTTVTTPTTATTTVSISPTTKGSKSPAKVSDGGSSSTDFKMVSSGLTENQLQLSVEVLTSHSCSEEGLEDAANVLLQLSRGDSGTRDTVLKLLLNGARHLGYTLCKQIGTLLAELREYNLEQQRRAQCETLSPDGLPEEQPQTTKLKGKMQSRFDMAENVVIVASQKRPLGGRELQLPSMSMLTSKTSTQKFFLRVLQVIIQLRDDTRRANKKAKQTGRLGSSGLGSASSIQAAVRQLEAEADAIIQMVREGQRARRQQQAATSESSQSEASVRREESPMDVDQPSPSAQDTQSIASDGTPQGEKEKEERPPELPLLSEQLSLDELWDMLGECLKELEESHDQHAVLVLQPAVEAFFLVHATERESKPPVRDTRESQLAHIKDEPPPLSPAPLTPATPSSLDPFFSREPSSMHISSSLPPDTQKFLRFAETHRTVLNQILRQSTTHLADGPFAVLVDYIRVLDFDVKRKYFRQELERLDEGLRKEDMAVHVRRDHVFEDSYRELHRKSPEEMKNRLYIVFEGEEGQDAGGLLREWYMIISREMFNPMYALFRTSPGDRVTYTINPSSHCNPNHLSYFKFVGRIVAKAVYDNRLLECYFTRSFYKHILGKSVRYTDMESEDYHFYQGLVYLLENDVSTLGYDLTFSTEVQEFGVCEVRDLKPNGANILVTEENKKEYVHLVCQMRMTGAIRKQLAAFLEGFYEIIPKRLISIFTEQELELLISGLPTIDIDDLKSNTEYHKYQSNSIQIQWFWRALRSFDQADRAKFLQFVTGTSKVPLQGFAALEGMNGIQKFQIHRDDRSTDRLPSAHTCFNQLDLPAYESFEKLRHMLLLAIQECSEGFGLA
UniProt P28356, whole entry, looked up: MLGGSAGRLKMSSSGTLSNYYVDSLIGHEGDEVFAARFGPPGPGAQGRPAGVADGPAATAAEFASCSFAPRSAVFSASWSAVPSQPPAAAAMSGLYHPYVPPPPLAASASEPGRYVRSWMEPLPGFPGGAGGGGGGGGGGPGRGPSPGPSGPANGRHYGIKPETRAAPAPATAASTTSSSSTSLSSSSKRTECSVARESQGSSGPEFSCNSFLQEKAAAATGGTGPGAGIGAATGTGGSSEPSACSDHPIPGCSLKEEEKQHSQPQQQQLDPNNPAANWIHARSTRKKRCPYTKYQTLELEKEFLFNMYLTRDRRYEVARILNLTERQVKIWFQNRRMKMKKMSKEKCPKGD

The other results are listed elsewhere or left out.

Holding throughout (assay): log2 fold change, soluble protein after heating vs DMSO (PISA); higher = thermal stabilisation; K562 cells, 10 uM, 30 min; active = over 0.2 and 3.5 SD of the protein, either way, in both replicates (recomputed)
Compound in assay [1]: C1=CC=C(C=C1)[C@H](COC2=CC3=C(C=C2)NC(=O)N3)NC(=O)C4=CC=CN(C4=O)CC5=CC(=C(C=C5)F)F
The procedure, abridged:
(§1)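 Aliquots of K562 cells (2×10^6 cells/mL) treated with 10 μM compound for 30 min were heated for 3 min over 48°C-58°C. After pooling and extraction in PBS with 0.5% NP-40 at 4°C, soluble protein from a 21,000xg, 90 min spin was quantified by TMTpro 16plex LC-MS/MS with channel sums equalised. Thermal stability is expressed against control samples, from duplicates, as a log2 fold change.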

Compound in assay [2]: CC1=C(SC2=C1C(=N[C@H](C3=NN=C(N32)C)CC(=O)N)C4=CC=C(C=C4)Cl)C
The procedure, abridged: as §1

Compound in assay [3]: c1ccc([C@@H]2C[C@H]2NC2CCNCC2)cc1
The procedure, abridged:
as §1

Compound in assay [4]: CC1=C2C(=CC=C1)N=C(N(C2=O)C3=CC=CC=C3C)CN4C=NC5=C(N=CN=C54)N
The procedure, abridged: as §1

Compound in assay [5]: Cc1sc2c(c1C)C(c1ccc(Cl)cc1)=N[C@@H](CC(=O)OC(C)(C)C)c1nnc(C)n1-2
The procedure, abridged: as §1

Take HNRNPR (UniProt O43390): the log2 fold change in assay [1] is inactive: 0.148; in assay [2], inactive: -0.131; in assay [3] it was inactive: 0.099.

As to HTD2 (UniProt P86397), the log2 fold change in assay [1] is inactive: -0.017; in assay [2], inactive: -0.101; in assay [4], inactive: -0.06; in assay [3] it was inactive: 0.373.

With ID1 (UniProt P41134), the log2 fold change in assay [1] is inactive: 0.057; in assay [5], inactive: 0.01.

For the target HNRNPK isoform 3 (UniProt P61978), the log2 fold change in assay [1] was inactive: 0.014; in assay [4], inactive: 0.074; in assay [5], inactive: 0.061.

Consider HMGXB4 (UniProt Q9UGU5), for which the values for the log2 fold change in assay [2] and in assay [3] were inactive: 0.39 and inactive: -0.054, respectively.

As to ICA1 isoform 2 (UniProt Q05084), the log2 fold change in assay [2] was inactive: 0.166; in assay [3], inactive: -0.014.

Take HLA-E (UniProt P13747): the log2 fold change in assay [1] was inactive: 0.1; in assay [2], inactive: 0.052; in assay [5] it was inactive: -0.229; in assay [3], inactive: 0.007.

On to HUWE1 isoform 2 (UniProt Q7Z6Z7), for which the log2 fold change is inactive: 0.114 in assay [2] and inactive: 0.226 in assay [3].

Consider HOXD9 (UniProt P28356), for which the values for the log2 fold change in assay [2], in assay [4] and in assay [3] were inactive: -0.017, inactive: 0.238 and inactive: 0.033, respectively.

As for HSP90AB3P (UniProt Q58FF7), the log2 fold change in assay [1] was inactive: -0.059; in assay [2] it was inactive: 0.095; in assay [3] it was inactive: 0.034.
